Strings that start with PEPTIDE1 are HELM notation: dots part the residues, brackets hold end groups and non-standard residues.
Experiment: general procedure: Fmoc solid-phase peptide synthesis
Conditions: whole synthesis

Question: Which isolated yield does the source give for “PEPTIDE1{T.Q.T.H.Y.G.Q.C.G.G.I.G.Y.S.G.P.T.V.C.A.S.G.T.T.C.Q.V.L.N.P.Y.Y.S.Q.C.L}$PEPTIDE1,PEPTIDE1,8:R3-25:R3|PEPTIDE1,PEPTIDE1,19:R3-35:R3$$$V2.0” here?
Answer: 23%

Question: With “PEPTIDE1{T.A.S.H.Y.G.Q.C.G.G.I.G.Y.S.G.P.T.V.C.A.S.G.T.T.C.Q.V.L.N.P.Y.Y.S.Q.C.L}$PEPTIDE1,PEPTIDE1,8:R3-25:R3|PEPTIDE1,PEPTIDE1,19:R3-35:R3$$$V2.0” as the substance, how does the isolated yield read?
Answer: 30%

Question: For “PEPTIDE1{T.Q.C.H.Y.G.Q.C.G.G.I.G.Y.S.G.P.T.V.C.A.S.G.T.T.C.Q.V.L.N.P.Y.Y.S.Q.C.L}$PEPTIDE1,PEPTIDE1,8:R3-25:R3|PEPTIDE1,PEPTIDE1,19:R3-35:R3$$$V2.0”, which isolated yield is on record?
Answer: 13%

Question: With “PEPTIDE1{A.Q.S.H.Y.G.Q.C.G.G.I.G.Y.S.G.P.T.V.C.A.S.G.T.T.C.Q.V.L.N.P.Y.Y.S.Q.C.L}$PEPTIDE1,PEPTIDE1,8:R3-25:R3|PEPTIDE1,PEPTIDE1,19:R3-35:R3$$$V2.0” as the substance, how does the isolated yield read?
Answer: 28%

Question: With “PEPTIDE1{T.Q.[Ser(Mana)].A.Y.G.Q.C.G.G.I.G.Y.S.G.P.T.V.C.A.S.G.T.T.C.Q.V.L.N.P.Y.Y.S.Q.C.L}$PEPTIDE1,PEPTIDE1,8:R3-25:R3|PEPTIDE1,PEPTIDE1,19:R3-35:R3$$$V2.0” as the substance, how does the isolated yield read?
Answer: 13%

Question: Which isolated yield does the source give for “PEPTIDE1{T.Q.[Ser_Glcb].H.Y.G.Q.C.G.G.I.G.Y.S.G.P.T.V.C.A.S.G.T.T.C.Q.V.L.N.P.Y.Y.S.Q.C.L}$PEPTIDE1,PEPTIDE1,8:R3-25:R3|PEPTIDE1,PEPTIDE1,19:R3-35:R3$$$V2.0” here?
Answer: 15%

Question: For “PEPTIDE1{T.Q.[Ser_Man6Pa2Mana].H.Y.G.Q.C.G.G.I.G.Y.S.G.P.T.V.C.A.S.G.T.T.C.Q.V.L.N.P.Y.Y.S.Q.C.L}$PEPTIDE1,PEPTIDE1,8:R3-25:R3|PEPTIDE1,PEPTIDE1,19:R3-35:R3$$$V2.0”, which isolated yield is on record?
Answer: 11%

Question: For “PEPTIDE1{T.Q.[Thr(Mana)].H.Y.G.Q.C.G.G.I.G.Y.S.G.P.T.V.C.A.S.G.T.T.C.Q.V.L.N.P.Y.Y.S.Q.C.L}$PEPTIDE1,PEPTIDE1,8:R3-25:R3|PEPTIDE1,PEPTIDE1,19:R3-35:R3$$$V2.0”, which isolated yield is on record?
Answer: 16%

Question: For “PEPTIDE1{A.Q.[Ser(Mana)].H.Y.G.Q.C.G.G.I.G.Y.S.G.P.T.V.C.A.S.G.T.T.C.Q.V.L.N.P.Y.Y.S.Q.C.L}$PEPTIDE1,PEPTIDE1,8:R3-25:R3|PEPTIDE1,PEPTIDE1,19:R3-35:R3$$$V2.0”, which isolated yield is on record?
Answer: 18%

Question: Which isolated yield does the source give for “PEPTIDE1{T.A.[Ser(Mana)].H.Y.G.Q.C.G.G.I.G.Y.S.G.P.T.V.C.A.S.G.T.T.C.Q.V.L.N.P.Y.Y.S.Q.C.L}$PEPTIDE1,PEPTIDE1,8:R3-25:R3|PEPTIDE1,PEPTIDE1,19:R3-35:R3$$$V2.0” here?
Answer: 17%

Question: Which isolated yield does the source give for “PEPTIDE1{T.Q.[Ser_ManNAca].H.Y.G.Q.C.G.G.I.G.Y.S.G.P.T.V.C.A.S.G.T.T.C.Q.V.L.N.P.Y.Y.S.Q.C.L}$PEPTIDE1,PEPTIDE1,8:R3-25:R3|PEPTIDE1,PEPTIDE1,19:R3-35:R3$$$V2.0” here?
Answer: 16%

Question: With “PEPTIDE1{T.Q.[Cys_Mana2Mana].H.Y.G.Q.C.G.G.I.G.Y.S.G.P.T.V.C.A.S.G.T.T.C.Q.V.L.N.P.Y.Y.S.Q.C.L}$PEPTIDE1,PEPTIDE1,8:R3-25:R3|PEPTIDE1,PEPTIDE1,19:R3-35:R3$$$V2.0” as the substance, how does the isolated yield read?
Answer: 14%

Question: Which isolated yield does the source give for “PEPTIDE1{T.Q.[Ser_Galb].H.Y.G.Q.C.G.G.I.G.Y.S.G.P.T.V.C.A.S.G.T.T.C.Q.V.L.N.P.Y.Y.S.Q.C.L}$PEPTIDE1,PEPTIDE1,8:R3-25:R3|PEPTIDE1,PEPTIDE1,19:R3-35:R3$$$V2.0” here?
Answer: 24%

Question: Which isolated yield does the source give for “PEPTIDE1{T.Q.[Ser_GlcNAca].H.Y.G.Q.C.G.G.I.G.Y.S.G.P.T.V.C.A.S.G.T.T.C.Q.V.L.N.P.Y.Y.S.Q.C.L}$PEPTIDE1,PEPTIDE1,8:R3-25:R3|PEPTIDE1,PEPTIDE1,19:R3-35:R3$$$V2.0” here?
Answer: 18%

Question: Which isolated yield does the source give for “PEPTIDE1{T.Q.[Ser(Man6Pa)].H.Y.G.Q.C.G.G.I.G.Y.S.G.P.T.V.C.A.S.G.T.T.C.Q.V.L.N.P.Y.Y.S.Q.C.L}$PEPTIDE1,PEPTIDE1,8:R3-25:R3|PEPTIDE1,PEPTIDE1,19:R3-35:R3$$$V2.0” here?
Answer: 6% for 20%

Question: Which isolated yield does the source give for “PEPTIDE1{T.Q.[Ser_Mana2Mana].H.A.G.Q.C.G.G.I.G.Y.S.G.P.T.V.C.A.S.G.T.T.C.Q.V.L.N.P.Y.Y.S.Q.C.L}$PEPTIDE1,PEPTIDE1,8:R3-25:R3|PEPTIDE1,PEPTIDE1,19:R3-35:R3$$$V2.0” here?
Answer: 6%

Question: Which isolated yield does the source give for “PEPTIDE1{T.Q.[dS].H.Y.G.Q.C.G.G.I.G.Y.S.G.P.T.V.C.A.S.G.T.T.C.Q.V.L.N.P.Y.Y.S.Q.C.L}$PEPTIDE1,PEPTIDE1,8:R3-25:R3|PEPTIDE1,PEPTIDE1,19:R3-35:R3$$$V2.0” here?
Answer: 22%

Question: With “PEPTIDE1{T.Q.[Ser_Glca6Mana].H.Y.G.Q.C.G.G.I.G.Y.S.G.P.T.V.C.A.S.G.T.T.C.Q.V.L.N.P.Y.Y.S.Q.C.L}$PEPTIDE1,PEPTIDE1,8:R3-25:R3|PEPTIDE1,PEPTIDE1,19:R3-35:R3$$$V2.0” as the substance, how does the isolated yield read?
Answer: 19%

Question: For “PEPTIDE1{T.Q.[Ser_Mana6Mana].H.Y.G.Q.C.G.G.I.G.Y.S.G.P.T.V.C.A.S.G.T.T.C.Q.V.L.N.P.Y.Y.S.Q.C.L}$PEPTIDE1,PEPTIDE1,8:R3-25:R3|PEPTIDE1,PEPTIDE1,19:R3-35:R3$$$V2.0”, which isolated yield is on record?
Answer: 22%

Question: For “PEPTIDE1{T.Q.[Cys(Mana)].H.Y.G.Q.C.G.G.I.G.Y.S.G.P.T.V.C.A.S.G.T.T.C.Q.V.L.N.P.Y.Y.S.Q.C.L}$PEPTIDE1,PEPTIDE1,8:R3-25:R3|PEPTIDE1,PEPTIDE1,19:R3-35:R3$$$V2.0”, which isolated yield is on record?
Answer: 16%

Question: Which isolated yield does the source give for “PEPTIDE1{T.Q.[D-Ser(Mana)].H.Y.G.Q.C.G.G.I.G.Y.S.G.P.T.V.C.A.S.G.T.T.C.Q.V.L.N.P.Y.Y.S.Q.C.L}$PEPTIDE1,PEPTIDE1,8:R3-25:R3|PEPTIDE1,PEPTIDE1,19:R3-35:R3$$$V2.0” here?
Answer: 8%

Question: With “PEPTIDE1{T.Q.[Ser_Gala].H.Y.G.Q.C.G.G.I.G.Y.S.G.P.T.V.C.A.S.G.T.T.C.Q.V.L.N.P.Y.Y.S.Q.C.L}$PEPTIDE1,PEPTIDE1,8:R3-25:R3|PEPTIDE1,PEPTIDE1,19:R3-35:R3$$$V2.0” as the substance, how does the isolated yield read?
Answer: 13%

Question: Which isolated yield does the source give for “PEPTIDE1{T.Q.[Ser_GlcNAcb].H.Y.G.Q.C.G.G.I.G.Y.S.G.P.T.V.C.A.S.G.T.T.C.Q.V.L.N.P.Y.Y.S.Q.C.L}$PEPTIDE1,PEPTIDE1,8:R3-25:R3|PEPTIDE1,PEPTIDE1,19:R3-35:R3$$$V2.0” here?
Answer: 7%

Question: With “PEPTIDE1{T.Q.S.A.Y.G.Q.C.G.G.I.G.Y.S.G.P.T.V.C.A.S.G.T.T.C.Q.V.L.N.P.Y.Y.S.Q.C.L}$PEPTIDE1,PEPTIDE1,8:R3-25:R3|PEPTIDE1,PEPTIDE1,19:R3-35:R3$$$V2.0” as the substance, how does the isolated yield read?
Answer: 15%

Question: Which isolated yield does the source give for “PEPTIDE1{T.Q.S.H.A.G.Q.C.G.G.I.G.Y.S.G.P.T.V.C.A.S.G.T.T.C.Q.V.L.N.P.Y.Y.S.Q.C.L}$PEPTIDE1,PEPTIDE1,8:R3-25:R3|PEPTIDE1,PEPTIDE1,19:R3-35:R3$$$V2.0” here?
Answer: 12%

Question: For “PEPTIDE1{T.Q.[Ser(Mana)].H.A.G.Q.C.G.G.I.G.Y.S.G.P.T.V.C.A.S.G.T.T.C.Q.V.L.N.P.Y.Y.S.Q.C.L}$PEPTIDE1,PEPTIDE1,8:R3-25:R3|PEPTIDE1,PEPTIDE1,19:R3-35:R3$$$V2.0”, which isolated yield is on record?
Answer: 13%

Question: With “PEPTIDE1{T.Q.[Thr_Mana2Mana].H.Y.G.Q.C.G.G.I.G.Y.S.G.P.T.V.C.A.S.G.T.T.C.Q.V.L.N.P.Y.Y.S.Q.C.L}$PEPTIDE1,PEPTIDE1,8:R3-25:R3|PEPTIDE1,PEPTIDE1,19:R3-35:R3$$$V2.0” as the substance, how does the isolated yield read?
Answer: 7%

Question: For “PEPTIDE1{T.Q.[Ser_GalNAca].H.Y.G.Q.C.G.G.I.G.Y.S.G.P.T.V.C.A.S.G.T.T.C.Q.V.L.N.P.Y.Y.S.Q.C.L}$PEPTIDE1,PEPTIDE1,8:R3-25:R3|PEPTIDE1,PEPTIDE1,19:R3-35:R3$$$V2.0”, which isolated yield is on record?
Answer: 20%

Question: Which isolated yield does the source give for “PEPTIDE1{T.Q.[Ser_Fuca].H.Y.G.Q.C.G.G.I.G.Y.S.G.P.T.V.C.A.S.G.T.T.C.Q.V.L.N.P.Y.Y.S.Q.C.L}$PEPTIDE1,PEPTIDE1,8:R3-25:R3|PEPTIDE1,PEPTIDE1,19:R3-35:R3$$$V2.0” here?
Answer: 26%
